These results are taken from publication PMC1866352.

The chains behind the UniProt entries cited, without tags or fusion partners.
UniProt P42859: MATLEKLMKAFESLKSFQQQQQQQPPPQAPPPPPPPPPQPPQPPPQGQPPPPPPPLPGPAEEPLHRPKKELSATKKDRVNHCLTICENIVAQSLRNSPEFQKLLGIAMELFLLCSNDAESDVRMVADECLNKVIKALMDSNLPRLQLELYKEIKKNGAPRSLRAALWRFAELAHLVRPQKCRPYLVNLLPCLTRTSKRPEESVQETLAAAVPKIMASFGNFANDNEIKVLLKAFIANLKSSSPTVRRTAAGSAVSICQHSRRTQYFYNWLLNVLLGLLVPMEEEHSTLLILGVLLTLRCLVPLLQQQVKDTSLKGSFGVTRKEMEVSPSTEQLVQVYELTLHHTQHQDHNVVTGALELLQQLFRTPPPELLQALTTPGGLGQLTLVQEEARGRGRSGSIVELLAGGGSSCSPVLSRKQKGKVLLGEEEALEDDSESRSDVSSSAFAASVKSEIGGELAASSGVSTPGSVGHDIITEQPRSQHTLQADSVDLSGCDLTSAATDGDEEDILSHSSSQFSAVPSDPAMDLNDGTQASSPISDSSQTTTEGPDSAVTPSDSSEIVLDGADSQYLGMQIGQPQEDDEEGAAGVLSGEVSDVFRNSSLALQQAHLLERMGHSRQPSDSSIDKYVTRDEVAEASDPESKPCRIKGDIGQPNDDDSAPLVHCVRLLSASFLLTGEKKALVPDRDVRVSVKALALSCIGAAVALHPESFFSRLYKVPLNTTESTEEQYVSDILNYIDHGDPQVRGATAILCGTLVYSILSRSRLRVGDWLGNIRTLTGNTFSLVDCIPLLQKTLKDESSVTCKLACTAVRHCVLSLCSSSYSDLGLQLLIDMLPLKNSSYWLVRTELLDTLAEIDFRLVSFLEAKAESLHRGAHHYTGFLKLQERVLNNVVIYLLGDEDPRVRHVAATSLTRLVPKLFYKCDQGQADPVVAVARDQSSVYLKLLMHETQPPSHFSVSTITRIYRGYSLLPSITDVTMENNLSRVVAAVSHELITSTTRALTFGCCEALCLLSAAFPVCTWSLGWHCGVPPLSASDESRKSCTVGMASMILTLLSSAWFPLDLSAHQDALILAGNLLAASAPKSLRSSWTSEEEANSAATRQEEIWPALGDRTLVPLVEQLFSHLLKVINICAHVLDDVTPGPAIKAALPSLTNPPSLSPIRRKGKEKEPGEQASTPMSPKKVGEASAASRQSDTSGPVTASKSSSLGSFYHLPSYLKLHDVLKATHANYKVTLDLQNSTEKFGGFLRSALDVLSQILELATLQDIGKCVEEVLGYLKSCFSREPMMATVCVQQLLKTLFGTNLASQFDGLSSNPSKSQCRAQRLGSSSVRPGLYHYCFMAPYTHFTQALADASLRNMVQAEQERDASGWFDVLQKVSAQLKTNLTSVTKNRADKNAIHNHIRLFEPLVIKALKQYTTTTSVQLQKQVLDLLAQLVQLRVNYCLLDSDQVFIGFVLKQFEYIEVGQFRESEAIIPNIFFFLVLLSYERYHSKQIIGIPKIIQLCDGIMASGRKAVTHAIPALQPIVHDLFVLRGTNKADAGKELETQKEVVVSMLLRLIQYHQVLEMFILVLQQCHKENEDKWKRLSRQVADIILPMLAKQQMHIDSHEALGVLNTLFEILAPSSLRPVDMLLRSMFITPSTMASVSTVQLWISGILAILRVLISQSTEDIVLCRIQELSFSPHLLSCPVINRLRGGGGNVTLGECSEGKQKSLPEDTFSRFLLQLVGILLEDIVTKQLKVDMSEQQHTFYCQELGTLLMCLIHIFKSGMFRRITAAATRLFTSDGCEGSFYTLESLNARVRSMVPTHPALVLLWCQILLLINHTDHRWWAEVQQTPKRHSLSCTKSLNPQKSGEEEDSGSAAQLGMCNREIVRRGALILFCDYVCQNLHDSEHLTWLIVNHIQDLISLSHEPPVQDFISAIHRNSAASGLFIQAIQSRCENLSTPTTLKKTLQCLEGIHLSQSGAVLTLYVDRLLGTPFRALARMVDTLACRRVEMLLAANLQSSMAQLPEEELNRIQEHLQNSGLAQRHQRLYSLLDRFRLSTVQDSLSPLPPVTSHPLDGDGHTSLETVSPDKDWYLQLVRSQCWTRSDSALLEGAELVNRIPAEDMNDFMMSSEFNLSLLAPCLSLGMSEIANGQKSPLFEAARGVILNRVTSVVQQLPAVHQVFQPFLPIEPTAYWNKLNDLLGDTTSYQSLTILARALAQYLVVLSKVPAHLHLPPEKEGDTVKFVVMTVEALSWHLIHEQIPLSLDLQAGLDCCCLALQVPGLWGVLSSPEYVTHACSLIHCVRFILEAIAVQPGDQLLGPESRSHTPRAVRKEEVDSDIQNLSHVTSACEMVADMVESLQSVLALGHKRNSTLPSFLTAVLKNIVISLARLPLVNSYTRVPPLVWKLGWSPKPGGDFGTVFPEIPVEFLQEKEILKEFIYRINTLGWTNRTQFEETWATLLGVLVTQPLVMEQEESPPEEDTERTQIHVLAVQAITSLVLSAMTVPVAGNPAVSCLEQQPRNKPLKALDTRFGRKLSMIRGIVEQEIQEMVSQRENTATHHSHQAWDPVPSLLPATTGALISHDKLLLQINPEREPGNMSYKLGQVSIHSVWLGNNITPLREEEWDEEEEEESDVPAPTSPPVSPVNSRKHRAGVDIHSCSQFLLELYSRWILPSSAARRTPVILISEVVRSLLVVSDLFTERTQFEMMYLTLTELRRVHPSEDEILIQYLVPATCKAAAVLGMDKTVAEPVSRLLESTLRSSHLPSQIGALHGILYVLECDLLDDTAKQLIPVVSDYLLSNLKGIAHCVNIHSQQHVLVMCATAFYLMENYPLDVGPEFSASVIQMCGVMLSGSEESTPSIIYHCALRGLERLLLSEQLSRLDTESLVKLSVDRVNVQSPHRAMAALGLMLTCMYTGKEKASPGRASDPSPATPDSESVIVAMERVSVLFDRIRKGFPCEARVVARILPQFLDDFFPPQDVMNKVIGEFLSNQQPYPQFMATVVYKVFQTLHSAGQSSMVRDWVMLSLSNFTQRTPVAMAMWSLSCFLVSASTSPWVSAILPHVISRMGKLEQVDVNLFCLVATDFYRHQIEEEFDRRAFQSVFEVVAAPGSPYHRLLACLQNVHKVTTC
UniProt P70398: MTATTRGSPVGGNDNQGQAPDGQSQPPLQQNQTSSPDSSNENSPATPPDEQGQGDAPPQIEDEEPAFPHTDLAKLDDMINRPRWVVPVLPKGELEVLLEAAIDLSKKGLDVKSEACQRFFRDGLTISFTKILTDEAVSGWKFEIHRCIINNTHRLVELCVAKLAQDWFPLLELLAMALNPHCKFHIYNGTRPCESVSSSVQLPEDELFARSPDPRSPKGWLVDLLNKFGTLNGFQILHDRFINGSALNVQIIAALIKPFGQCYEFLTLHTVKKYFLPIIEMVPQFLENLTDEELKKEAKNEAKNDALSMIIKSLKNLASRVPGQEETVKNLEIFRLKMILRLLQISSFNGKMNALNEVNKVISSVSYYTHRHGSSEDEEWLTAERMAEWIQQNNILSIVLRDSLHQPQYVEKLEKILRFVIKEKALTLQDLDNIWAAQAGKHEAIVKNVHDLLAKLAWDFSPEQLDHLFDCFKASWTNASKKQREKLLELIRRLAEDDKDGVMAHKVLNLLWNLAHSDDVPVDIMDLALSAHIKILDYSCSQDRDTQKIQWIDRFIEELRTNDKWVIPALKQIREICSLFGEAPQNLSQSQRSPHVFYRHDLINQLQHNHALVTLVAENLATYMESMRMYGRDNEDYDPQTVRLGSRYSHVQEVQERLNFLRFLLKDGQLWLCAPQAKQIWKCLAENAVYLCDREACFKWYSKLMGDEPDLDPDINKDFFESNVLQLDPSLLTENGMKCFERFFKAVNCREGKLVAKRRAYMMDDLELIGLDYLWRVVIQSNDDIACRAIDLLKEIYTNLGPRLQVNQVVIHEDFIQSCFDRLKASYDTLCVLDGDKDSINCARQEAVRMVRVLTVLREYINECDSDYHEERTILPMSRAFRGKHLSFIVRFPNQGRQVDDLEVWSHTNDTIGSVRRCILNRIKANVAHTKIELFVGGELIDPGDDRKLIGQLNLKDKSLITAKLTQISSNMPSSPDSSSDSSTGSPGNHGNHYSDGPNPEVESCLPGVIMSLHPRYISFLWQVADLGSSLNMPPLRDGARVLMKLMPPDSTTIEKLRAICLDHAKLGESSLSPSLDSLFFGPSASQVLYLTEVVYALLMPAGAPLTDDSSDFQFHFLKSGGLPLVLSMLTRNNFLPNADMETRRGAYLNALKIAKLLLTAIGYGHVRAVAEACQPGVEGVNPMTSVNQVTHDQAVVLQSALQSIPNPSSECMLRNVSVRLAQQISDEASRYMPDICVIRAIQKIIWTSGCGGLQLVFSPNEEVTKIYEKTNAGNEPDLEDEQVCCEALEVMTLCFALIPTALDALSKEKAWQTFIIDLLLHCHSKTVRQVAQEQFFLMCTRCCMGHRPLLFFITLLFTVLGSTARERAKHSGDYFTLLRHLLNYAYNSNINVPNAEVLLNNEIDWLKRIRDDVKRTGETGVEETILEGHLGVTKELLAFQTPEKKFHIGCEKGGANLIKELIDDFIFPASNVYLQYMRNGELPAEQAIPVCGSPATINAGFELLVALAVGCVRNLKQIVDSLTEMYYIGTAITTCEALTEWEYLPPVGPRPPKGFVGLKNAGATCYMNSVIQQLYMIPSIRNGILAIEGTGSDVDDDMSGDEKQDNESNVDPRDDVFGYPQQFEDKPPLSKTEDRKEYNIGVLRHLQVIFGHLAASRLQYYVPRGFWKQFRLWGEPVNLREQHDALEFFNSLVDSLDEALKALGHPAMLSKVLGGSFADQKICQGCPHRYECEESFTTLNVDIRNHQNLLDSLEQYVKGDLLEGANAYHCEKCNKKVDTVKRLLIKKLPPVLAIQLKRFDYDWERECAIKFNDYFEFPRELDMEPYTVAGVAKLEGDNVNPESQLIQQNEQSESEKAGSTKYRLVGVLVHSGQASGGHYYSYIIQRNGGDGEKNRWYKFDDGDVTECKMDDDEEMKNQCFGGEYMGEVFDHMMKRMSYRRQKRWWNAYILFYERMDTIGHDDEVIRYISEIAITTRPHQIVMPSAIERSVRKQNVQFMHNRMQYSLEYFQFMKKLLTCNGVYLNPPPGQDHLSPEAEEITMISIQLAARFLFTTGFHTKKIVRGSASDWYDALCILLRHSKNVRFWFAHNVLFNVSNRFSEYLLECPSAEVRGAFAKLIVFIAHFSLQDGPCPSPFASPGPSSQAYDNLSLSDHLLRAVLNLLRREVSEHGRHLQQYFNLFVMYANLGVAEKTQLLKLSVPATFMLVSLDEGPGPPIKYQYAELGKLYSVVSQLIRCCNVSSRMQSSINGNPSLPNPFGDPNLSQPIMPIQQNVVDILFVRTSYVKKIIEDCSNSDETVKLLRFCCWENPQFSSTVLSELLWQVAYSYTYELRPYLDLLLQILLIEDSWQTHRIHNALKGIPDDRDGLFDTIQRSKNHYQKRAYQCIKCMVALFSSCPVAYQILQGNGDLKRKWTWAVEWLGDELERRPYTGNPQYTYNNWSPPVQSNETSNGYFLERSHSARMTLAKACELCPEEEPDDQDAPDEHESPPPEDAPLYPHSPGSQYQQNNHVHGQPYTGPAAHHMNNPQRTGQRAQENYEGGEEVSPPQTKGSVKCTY
UniProt Q9D4H8: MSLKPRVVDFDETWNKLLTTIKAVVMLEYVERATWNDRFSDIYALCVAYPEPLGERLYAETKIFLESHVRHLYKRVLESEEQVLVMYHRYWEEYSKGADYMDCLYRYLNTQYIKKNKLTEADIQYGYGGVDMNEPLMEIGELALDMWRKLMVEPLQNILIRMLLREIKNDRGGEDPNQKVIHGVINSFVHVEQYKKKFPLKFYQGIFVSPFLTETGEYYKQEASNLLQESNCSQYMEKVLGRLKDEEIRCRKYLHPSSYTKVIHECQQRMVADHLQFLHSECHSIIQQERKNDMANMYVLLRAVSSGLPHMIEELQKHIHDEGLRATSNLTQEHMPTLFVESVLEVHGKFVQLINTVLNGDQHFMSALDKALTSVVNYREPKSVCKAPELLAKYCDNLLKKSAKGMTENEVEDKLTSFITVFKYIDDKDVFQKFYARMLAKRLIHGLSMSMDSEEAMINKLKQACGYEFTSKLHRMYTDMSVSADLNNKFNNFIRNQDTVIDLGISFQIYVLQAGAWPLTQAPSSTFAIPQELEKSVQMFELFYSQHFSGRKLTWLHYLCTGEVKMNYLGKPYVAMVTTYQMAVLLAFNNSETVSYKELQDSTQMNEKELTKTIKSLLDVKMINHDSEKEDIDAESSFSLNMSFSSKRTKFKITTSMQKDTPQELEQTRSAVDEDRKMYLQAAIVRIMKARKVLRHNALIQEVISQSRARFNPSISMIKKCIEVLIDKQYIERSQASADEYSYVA

The assay deals with Htt (wild-type, from wild-type mouse brain) (mouse (endogenous in mouse brain)) (UniProt P42859). Nature of the assay: co-IP; whole-brain lysates (500 ug, T-PER with protease inhibitors) of wild-type or YAC128 mice; monoclonal Htt antibody (Chemicon 2166) overnight at 4 °C, protein G; washed 5x with TBS/0.05% Tween; Western blots probed for the partners. A general note: A western blot detects proteins with antibodies after separation by electrophoresis.

These are yes or no findings as the source states them, for the method shown. In cells and extracts the contact can be indirect. Some binding calls cover weakened binding; strength is not graded here.

Regarding “CACNA2D1 (mouse brain) (from UniProt O08532 25-1103)”, the binding result is listed as “binds”.

Turning to “USP9X (mouse brain) (from UniProt P70398 1-2559)”, the binding entry was “binds”.

Consider “CUL2 (mouse brain) (from UniProt Q9D4H8 1-745)”, for which the binding result is recorded as “binds”.

Turning to “SNAP25 (mouse brain) (from UniProt P60879 1-206)”, the binding result is recorded as “binds”.
